{"source": "patent US20250288577A1", "about": "“METHODS OF TREATING A VIRUS INFECTION AND METHODS OF INHIBITING VIRAL REPLICATION” (CORNELL UNIVERSITY, priority 2022, published 2025)", "test_system": "HCoV-OC43", "test": "HCoV-OC43 replication in HBECs and HCT8 cells (Western blot OC43, qPCR of medium)", "format": "cell-based", "settings": "HBECs infected with HCoV-OC43, with or without JNK inhibitor", "note": "At least one compound was matched to its structure with a doubt left.", "data": [{"compound": "Oc1c2ccccc2c2c3c(cccc13)N=N2", "note": "[SP600125]", "values": [{"measurement": "amount of viral RNA transcripts detected in the medium", "result": "reduced"}]}]}
